Results taken from publication PMC7408725.
These are yes or no findings as the source states them, for the method shown. In cells and extracts the contact can be indirect. Some binding calls cover weakened binding; strength is not graded here.

Target: Smad3 (human (endogenous in HPL1A)), P84022
Assay: co-IP; lysate (1 mg protein) of cells transfected with miR-216b mimic or control miRNA mimic and treated with 5 ng/mL TGF-β1 for 1 h; anti-Smad3 antibody or rabbit IgG with protein A agarose beads, 4 °C overnight; Western blot with anti-Smad4 and anti-Smad3
Conditions: remark: other sources report otherwise

- binding: binds
B1: Smad4, Q13485 1-552 (protein)
chain: MDNMSITNTPTSNDACLSIVHSLMCHRQGGESETFAKRAIESLVKKLKEKKDELDSLITAITTNGAHPSKCVTIQRTLDGRLQVAGRKGFPHVIYARLWRWPDLHKNELKHVKYCQYAFDLKCDSVCVNPYHYERVVSPGIDLSGLTLQSNAPSSMMVKDEYVHDFEGQPSLSTEGHSIQTIQHPPSNRASTETYSTPALLAPSESNATSTANFPNIPVASTSQPASILGGSHSEGLLQIASGPQPGQQQNGFTGQPATYHHNSTTTWTGSRTAPYTPNLPHHQNGHLQHHPPMPPHPGHYWPVHNELAFQPPISNHPAPEYWCSIAYFEMDVQVGETFKVPSSCPIVTVDGYVDPSGGDRFCLGQLSNVHRTEAIERARLHIGKGVQLECKGEGDVWVRCLSDHAVFVQSYYLDREAGRAPGDAVHKIYPSAYIKVFDLRQCHRQMQQQAATAQAAAAAQAAAVAGNIPGPGSVGGIAPAISLSAAAGIGVDDLRRLCILRMSFVKGWGPDYPRQSIKETPCWIEIHLHRALQLLDEVLHTMPIADPQPLD
